Measured values from patent US20250277054A1.
Results are given in words; binding and its absence hold for the method and conditions named. Some binding calls cover weakened binding; strength is not graded here.

Legend:
[1] = biological target: full-length cynomolgus PSMA on Flp-in CHO cells (WBP3xx042-FlpinCHO.cPro1.B7) (cynomolgus); experiment: flow cytometry on FlpInCHO-cyno PSMA cells
[2] = biological target: Cyno PSMA.ECD.His (Acro) (cynomolgus); experiment: ELISA, coated cynomolgus PSMA protein (His tag)
[3] = biological target: Cyno PSMA.ECD.His (Acro) (cynomolgus); experiment: ELISA, cynomolgus PSMA ECD captured by anti-His antibody
[4] = biological target: full-length cynomolgus PSMA on Flp-in CHO cells (WBP3xx042-FlpinCHO.cPro1.B7) (cynomolgus); experiment: flow cytometry on cynomolgus PSMA-expressing CHO cells
[5] = biological target: Cyno PSMA.ECD.His (Acro) (cynomolgus); experiment: SPR (Biacore 8K)

Row | binding [1] | binding [2] | binding [3] | binding [4] | binding [5] | Binder
1 | binds | binds | – | – | – | W308051-T3U5.E17-61.uIgG4V322 (bispecific antibody) heavy 1: QVQLVQSGAEVKKPGSSVKVSCKASGFAFTDYYIHWVRQAPGQGLEWMGWISPGNVNTKYNENFKGRVTITADKSTSTAYMELSSLRSEDTAVYYCARDGYSLYYFDYWGQGTLVTVLEDLKNVFPPEVAVFEPSECEISHTQKATLVCLATGFYPDHVELSWWVNGKEVHSGVCTDPQPLKEQPALQDSRYALSSRLRVSATFWQNPRNHFRCQVQFYGLSENDEWTQDRAKPVTQIVSAEAWGRYGPPCPPCPAPEAAGGPSVFLFPPKPKDTLMISRTPEVTCVVVDVSQEDPEVQFNWYVDGVEVHNAKTKPREEQFNSTYRVVSVLTVLHQDWLNGKEYKCKVSNKGLPSSIEKTISKAKGQPREPQVYTLPPCQEEMTKNQVSLWCLVKGFYPSDIAVEWESNGQPENNYKTTPPVLDSDGSFFLYSRLTVDKSRWQEGNVFSCSVMHEALHNHYTQKSLSLSLG light 1: DIVMTQSPDSLAVSLGERATINCKSSQSLLNSRTRKNYLAWYQQKPGQPPKLLIYWASTRQSGVPDRFSGSGSGTDFTLTISSLQAEDVAVYYCTQSHTLRTFGGGTKVEIKPDIQNPDPAVYQLRDSKSSDKSVCLFTDFDSQTQVSQSKDSDVYITDKCVLDMRSMDFKSNSAVAWSQKSDFACANAFQNSIIPEDTFFCS heavy 2: EVQLVQSGAEVKKPGESLKISCKASGYSFTTYWIGWVRQMPGKGLELMGIIYPYDSDTRYSPSFQGQVTISADKSINTAYLQWSSLKASDTAMYYCARITGGYLFDYWGQGILVTVSSASTKGPSVFPLAPCSRSTSESTAALGCLVKDYFPEPVTVSWNSGALTSGVHTFPAVLQSSGLYSLSSVVTVPSSSLGTKTYTCNVDHKPSNTKVDKRVESKYGPPCPPCPAPEAAGGPSVFLFPPKPKDTLMISRTPEVTCVVVDVSQEDPEVQFNWYVDGVEVHNAKTKPREEQFNSTYRVVSVLTVLHQDWLNGKEYKCKVSNKGLPSSIEKTISKAKGQPREPQVCTLPPSQEEMTKNQVSLSCAVKGFYPSDIAVEWESNGQPENNYKTTPPVLDSDGSFFLVSRLTVDKSRWQEGNVFSCSVMHEALHNHYTQKSLSLSLG light 2: QSALTQPPSASGSPGQSVTISCTGTSSDVGGYNYVSWYQQHPGKAPKLMIYEVTKRPSGVPDRFSGSKSGNTASLTVSGLQAEDEADYYCTSYAGSNKYVFGTGTKVTVLGQPKAAPSVTLFPPSSEELQANKATLVCLISDFYPGAVTVAWKADSSPVKAGVETTTPSKQSNNKYAASSYLSLTPEQWKSHKSYSCQVTHEGSTVEKTVAPTECS
2 | – | – | binds | binds | binds | W305042-1.135.2-uIgG1L (antibody, V domains shown) VH: EVQLVQSGAEVKKPGESLKISCKASGYSFTTYWIGWVRQMPGKGLELMGIIYPYDSDTRYSPSFQGQVTISADKSINTAYLQWSSLKASDTAMYYCARITGGYLFDYWGQGILVTVSS VL: QSALTQPPSASGSPGQSVTISCTGTSSDVGGYNYVSWYQQHPGKAPKLMIYEVTKRPSGVPDRFSGSKSGNTASLTVSGLQAEDEADYYCTSYAGSNKYVFGTGTKVTVLG
